{
  "source": "patent US11985974B2",
  "about": "“Antimicrobial ferulic acid derivatives and uses thereof” (WISCONSIN ALUMNI RESEARCH FOUNDATION, priority 2014, dated 2024)",
  "system": "S. cerevisiae (BY4741 his3Δ::KanMX)",
  "assay": "Multivariate morphological analysis (CalMorph)",
  "format": "cell-based, Saccharomyces cerevisiae",
  "description": "Cells of budding yeast S. cerevisiae (BY4741 his3Δ::KanMX; hereafter, his3Δ) were cultured in 2 mL 1% Bacto yeast extract (BD Biosciences), 2% Bacto peptone (BD Biosciences), and 2% glucose (YPD) with 0, 25, 50, 75, 100, or 125 μg/mL poacic acid or a DMSO control at 25° C. for 16 h until the early log phase. The maximum concentration of the drug (125 μg/mL) was determined based on the growth inhibition rates (10%). Cell fixation, staining, and observation were performed (n=5) as described previously (Ohya et al. 2005). Images of cell shape, actin, and nuclear DNA were analyzed using the image processing software CalMorph (version 1.2), which extracted a total of 501 morphological quantitative values from at least 200 individual cells in each experiment (Ohya et al. 2005). Images were processed using Photoshop CS2 (Adobe Systems) for illustrative purposes.\nTo assess the morphological similarity between the cells treated with poacic acid and nonessential deletion mutants or cells treated with other cell wall-affecting drugs, their morphological profiles were compared as described previously (Ohnuki et al. 2010). To identify functional gene clusters, the most significant similar mutants (43 genes, P<0.01 after Bonferroni correction, t test) were selected as a query for GO term analysis (GO term finder in the Saccharomyces genome database).\nTo extract independent and characteristic features of morphology induced by poacic acid, a two-step principal component analysis was performed as described previously (Ohnuki et al. 2012). To compare phenotypic noise in the yeast population (poacic acid vs. DMSO), the noise score was calculated as described previously (Yvert et al. 2013).",
  "data": [
    {"smiles": "COc1cc(/C=C/c2cc(/C=C/C(=O)O)cc(OC)c2O)ccc1O", "note": "[poacic acid, (E)-4-Hydroxy-3-{2-[(E)-4-hydroxy-3-methoxystyryl]}-5-methoxycinnamic acid]", "values": [
      {"measurement": "R value (morphological correlation)", "setting": "vs ALG8 deletion mutant", "result": 0.48},
      {"measurement": "R value (morphological correlation)", "setting": "vs BNA1 deletion mutant", "result": 0.44},
      {"measurement": "R value (morphological correlation)", "setting": "vs BNI1 deletion mutant", "result": 0.59},
      {"measurement": "R value (morphological correlation)", "setting": "vs BUD6 deletion mutant", "result": 0.45},
      {"measurement": "R value (morphological correlation)", "setting": "vs CAP1 deletion mutant", "result": 0.45},
      {"measurement": "R value (morphological correlation)", "setting": "vs CAX4 deletion mutant", "result": 0.55},
      {"measurement": "R value (morphological correlation)", "setting": "vs CLC1 deletion mutant", "result": 0.46},
      {"measurement": "R value (morphological correlation)", "setting": "vs COG1 deletion mutant", "result": 0.61},
      {"measurement": "R value (morphological correlation)", "setting": "vs DFG5 deletion mutant", "result": 0.52},
      {"measurement": "R value (morphological correlation)", "setting": "vs FKS1 deletion mutant", "result": 0.59},
      {"measurement": "R value (morphological correlation)", "setting": "vs GAS1 deletion mutant", "result": 0.58},
      {"measurement": "R value (morphological correlation)", "setting": "vs GDT1 deletion mutant", "result": 0.47},
      {"measurement": "R value (morphological correlation)", "setting": "vs GUP1 deletion mutant", "result": 0.51},
      {"measurement": "R value (morphological correlation)", "setting": "vs IMP2 deletion mutant", "result": 0.46},
      {"measurement": "R value (morphological correlation)", "setting": "vs KRE1 deletion mutant", "result": 0.53},
      {"measurement": "R value (morphological correlation)", "setting": "vs MMS2 deletion mutant", "result": 0.46},
      {"measurement": "R value (morphological correlation)", "setting": "vs MNN11 deletion mutant", "result": 0.55},
      {"measurement": "R value (morphological correlation)", "setting": "vs MON2 deletion mutant", "result": 0.54},
      {"measurement": "R value (morphological correlation)", "setting": "vs NPY1 deletion mutant", "result": 0.61},
      {"measurement": "R value (morphological correlation)", "setting": "vs OCH1 deletion mutant", "result": 0.57},
      {"measurement": "R value (morphological correlation)", "setting": "vs OPT2 deletion mutant", "result": 0.44},
      {"measurement": "R value (morphological correlation)", "setting": "vs OST3 deletion mutant", "result": 0.61},
      {"measurement": "R value (morphological correlation)", "setting": "vs OST4 deletion mutant", "result": 0.61},
      {"measurement": "R value (morphological correlation)", "setting": "vs PEA2 deletion mutant", "result": 0.45},
      {"measurement": "R value (morphological correlation)", "setting": "vs PEP3 deletion mutant", "result": 0.46},
      {"measurement": "R value (morphological correlation)", "setting": "vs PEP5 deletion mutant", "result": 0.46},
      {"measurement": "R value (morphological correlation)", "setting": "vs PER1 deletion mutant", "result": 0.57},
      {"measurement": "R value (morphological correlation)", "setting": "vs POC4 deletion mutant", "result": 0.45},
      {"measurement": "R value (morphological correlation)", "setting": "vs PPS1 deletion mutant", "result": 0.44},
      {"measurement": "R value (morphological correlation)", "setting": "vs RHO4 deletion mutant", "result": 0.51},
      {"measurement": "R value (morphological correlation)", "setting": "vs SNC2 deletion mutant", "result": 0.60},
      {"measurement": "R value (morphological correlation)", "setting": "vs SUR4 deletion mutant", "result": 0.61},
      {"measurement": "R value (morphological correlation)", "setting": "vs SWA2 deletion mutant", "result": 0.59},
      {"measurement": "R value (morphological correlation)", "setting": "vs TPM1 deletion mutant", "result": 0.51},
      {"measurement": "R value (morphological correlation)", "setting": "vs UME1 deletion mutant", "result": 0.47},
      {"measurement": "R value (morphological correlation)", "setting": "vs VPS16 deletion mutant", "result": 0.45},
      {"measurement": "R value (morphological correlation)", "setting": "vs VPS33 deletion mutant", "result": 0.45},
      {"measurement": "R value (morphological correlation)", "setting": "vs VPS52 deletion mutant", "result": 0.48},
      {"measurement": "R value (morphological correlation)", "setting": "vs YAL058C-A deletion mutant", "result": 0.60},
      {"measurement": "R value (morphological correlation)", "setting": "vs YFR016C deletion mutant", "result": 0.45},
      {"measurement": "R value (morphological correlation)", "setting": "vs YLR111W deletion mutant", "result": 0.60},
      {"measurement": "R value (morphological correlation)", "setting": "vs YOL013W-A deletion mutant", "result": 0.51},
      {"measurement": "R value (morphological correlation)", "setting": "vs YPL184C deletion mutant", "result": 0.46}
    ]}
  ]
}
